Results from paper PMC8043254.
Results are given in words; binding and its absence hold for the method and conditions named. Binding calls can cover weak binding; strength is not graded here. Sequences can lack the tags named with a protein.

Target: T1, GST-Eps8L2 (human) (UniProt Q9H6S3)
T1 sequence: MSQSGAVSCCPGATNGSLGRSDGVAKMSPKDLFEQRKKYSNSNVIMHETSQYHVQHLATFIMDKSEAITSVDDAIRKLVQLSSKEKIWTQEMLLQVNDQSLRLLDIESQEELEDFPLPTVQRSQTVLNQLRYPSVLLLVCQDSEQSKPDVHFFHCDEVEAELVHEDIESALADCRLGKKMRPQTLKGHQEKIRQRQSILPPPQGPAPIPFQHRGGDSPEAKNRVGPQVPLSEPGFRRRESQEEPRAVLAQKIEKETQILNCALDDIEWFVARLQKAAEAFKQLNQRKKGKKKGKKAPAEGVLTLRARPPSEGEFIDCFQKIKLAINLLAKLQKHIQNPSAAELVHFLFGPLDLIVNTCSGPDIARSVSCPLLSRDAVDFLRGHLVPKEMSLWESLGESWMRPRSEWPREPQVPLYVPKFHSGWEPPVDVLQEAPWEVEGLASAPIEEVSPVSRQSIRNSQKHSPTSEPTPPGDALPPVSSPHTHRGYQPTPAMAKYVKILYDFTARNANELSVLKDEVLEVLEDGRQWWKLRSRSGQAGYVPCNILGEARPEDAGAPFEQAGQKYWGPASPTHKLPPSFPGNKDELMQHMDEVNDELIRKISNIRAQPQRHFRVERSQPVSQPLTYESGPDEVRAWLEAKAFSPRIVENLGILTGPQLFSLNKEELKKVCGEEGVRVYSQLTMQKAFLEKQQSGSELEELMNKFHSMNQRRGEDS
Test: pull-down; GST-Eps8L2 (20 ug) on glutathione Sepharose beads, eluted His-Ctdnep1_C-ter in solution; 125 mM Tris-HCl, 150 mM NaCl; 3 h at 4°C; both purified

His-Ctdnep1_Cter (domain or fragment)
binding: binds
